This passage reports binding results from article doi:10.1101/681304.

Sequences of proteins named here, by UniProt entry; tags and fusion partners are left off. Residues count along the entry.
UniProt Q9ULZ3, residues 107-195: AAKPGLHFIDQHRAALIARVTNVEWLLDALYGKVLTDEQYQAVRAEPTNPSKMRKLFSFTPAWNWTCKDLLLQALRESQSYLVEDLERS
UniProt Q9Y2G2, residues 446-536: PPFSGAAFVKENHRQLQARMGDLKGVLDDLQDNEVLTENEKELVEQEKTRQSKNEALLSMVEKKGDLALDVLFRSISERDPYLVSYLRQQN

Assay in all cases: split reporter
The target of experiment [1] is CASP1 CARD domain (CASP1^CARD), SmBiT- or LgBiT-tagged (not stated (human or mouse cDNA cloned)) (UniProt P29466).
The target in experiment [2] is ASC CARD domain (ASC^CARD), SmBiT- or LgBiT-tagged (human) (UniProt Q9ULZ3).
The target of experiment [3] is T1, CASP1 CARD domain (CASP1^CARD), SmBiT- or LgBiT-tagged (not stated (human or mouse cDNA cloned)), P29466.
T1 chain: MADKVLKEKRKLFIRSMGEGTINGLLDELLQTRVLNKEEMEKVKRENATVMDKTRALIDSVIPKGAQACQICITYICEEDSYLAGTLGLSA
Conditions: remark: other sources report otherwise.

Results are given in words; binding and its absence hold for the method and conditions named. Binding seen in cells or lysates may run through a third protein. Some entries that bind do so weakly or less than the wild type. Where a sequence is shown, tags or fusion partners need not be part of it.

In the case of “ASC CARD domain (ASC^CARD), SmBiT- or LgBiT-tagged (from UniProt Q9ULZ3 107-195) (domain or fragment)”, the binding entry in experiment [1] is “binds”.

For “CARD8 CARD domain (CARD8^CARD), NanoBiT-tagged (from UniProt Q9Y2G2 446-536) (domain or fragment)”, the figures for the binding result in experiment [2] and in experiment [1] were “no binding” and “binds”, respectively.

Take “CASP1 CARD domain (CASP1^CARD), SmBiT- or LgBiT-tagged (from UniProt P29466 1-91) (domain or fragment)”: the binding entry in experiment [2] is listed as “binds”.

B1: CASP1 CARD domain (CASP1^CARD), SmBiT- or LgBiT-tagged, P29466 1-91 (domain or fragment)
chain: MADKVLKEKRKLFIRSMGEGTINGLLDELLQTRVLNKEEMEKVKRENATVMDKTRALIDSVIPKGAQACQICITYICEEDSYLAGTLGLSA
Consider B1, for which the binding entry in experiment [3] was “binds”.

B2: NLRP1 CARD domain (NLRP1^CARD), NanoBiT-tagged (domain or fragment, UniProt Q9C000 1374-1463)
chain: DAPQLLHFVDQYREQLIARVTSVEVVLDKLHGQVLSQEQYERVLAENTRPSQMRKLFSLSQSWDRKCKDGLYQALKETHPHLIMELWEKG
Turning to B2, the figures for the binding result in experiment [2] and in experiment [1] were “binds” and “no binding”, respectively.
